Measured values as given in patent publication US20250281630A1 (TORAY INDUSTRIES, published 2025).
No constants are given. Whether binding was seen depends on the method and setting. Some entries that bind do so weakly or less than the wild type.

Experiments:
[1] = biological target: T1, mouse CAPRIN-1 on mouse cancer cells (mouse, UniProt Q60865 2-707); assay: flow cytometry, Renca and 4T1 cells
T1 construct: whole, on cells
T1 sequence (looked up): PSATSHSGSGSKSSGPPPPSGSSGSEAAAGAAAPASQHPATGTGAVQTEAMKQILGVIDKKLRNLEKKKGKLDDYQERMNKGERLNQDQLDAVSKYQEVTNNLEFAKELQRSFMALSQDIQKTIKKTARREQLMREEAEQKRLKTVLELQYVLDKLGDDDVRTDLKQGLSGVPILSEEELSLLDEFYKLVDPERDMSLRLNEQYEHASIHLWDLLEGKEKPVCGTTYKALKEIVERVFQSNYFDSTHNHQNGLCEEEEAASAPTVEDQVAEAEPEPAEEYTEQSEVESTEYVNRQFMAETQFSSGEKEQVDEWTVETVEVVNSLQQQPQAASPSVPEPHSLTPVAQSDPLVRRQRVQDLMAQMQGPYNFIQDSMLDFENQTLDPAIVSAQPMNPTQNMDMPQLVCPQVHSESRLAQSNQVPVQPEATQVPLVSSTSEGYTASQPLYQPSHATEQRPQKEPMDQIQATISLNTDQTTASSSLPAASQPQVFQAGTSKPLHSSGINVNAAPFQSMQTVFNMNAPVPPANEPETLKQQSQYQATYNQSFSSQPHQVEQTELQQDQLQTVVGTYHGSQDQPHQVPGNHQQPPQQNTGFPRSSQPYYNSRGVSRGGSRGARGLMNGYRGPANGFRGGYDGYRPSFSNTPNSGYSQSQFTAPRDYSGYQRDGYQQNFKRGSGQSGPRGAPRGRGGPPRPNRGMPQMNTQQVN

[2] = biological target: T2, human CAPRIN-1 on the cell membrane surface of human cancer cells (human) (UniProt Q14444); assay: flow cytometry, human cancer cell lines
T2 sequence (looked up): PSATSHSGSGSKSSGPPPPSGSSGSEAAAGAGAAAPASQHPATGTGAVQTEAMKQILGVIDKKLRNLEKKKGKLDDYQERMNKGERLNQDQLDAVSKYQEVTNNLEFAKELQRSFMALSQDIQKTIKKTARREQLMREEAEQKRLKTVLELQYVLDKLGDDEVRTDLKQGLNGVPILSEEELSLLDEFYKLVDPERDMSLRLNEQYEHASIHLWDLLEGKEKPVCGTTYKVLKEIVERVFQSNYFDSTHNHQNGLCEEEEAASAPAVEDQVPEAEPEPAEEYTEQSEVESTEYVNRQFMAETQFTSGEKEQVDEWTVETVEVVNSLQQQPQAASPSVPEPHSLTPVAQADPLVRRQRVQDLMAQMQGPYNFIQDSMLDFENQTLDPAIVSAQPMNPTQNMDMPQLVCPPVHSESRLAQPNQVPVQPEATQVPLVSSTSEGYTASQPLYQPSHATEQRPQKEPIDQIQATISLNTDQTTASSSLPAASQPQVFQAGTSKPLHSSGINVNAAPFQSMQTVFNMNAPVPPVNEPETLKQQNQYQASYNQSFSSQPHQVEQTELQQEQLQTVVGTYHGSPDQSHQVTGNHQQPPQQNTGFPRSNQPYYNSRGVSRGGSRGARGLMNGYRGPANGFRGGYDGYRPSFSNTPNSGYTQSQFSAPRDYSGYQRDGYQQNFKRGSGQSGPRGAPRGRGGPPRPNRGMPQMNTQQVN

[3] = biological target: T2, human CAPRIN-1 on the cell membrane surface of human cancer cells (human); assay: flow cytometry, BT474 cells
[4] = biological target: T2, human CAPRIN-1 on the cell membrane surface of human cancer cells (human); assay: HT29 cells, as shown in Example 5

Measured: binding

B1: Conjugate 133 (antibody, V domains shown)
VH: DAELVKPGASVKISCKASGYTFTDHSIHWVQQKPEQGLEWIGYISPGNGNIKYNEKFKGKATLTADKSSSTAYMQLNSLTSEDSAVYFCKRSLGRGGPYYFDYWGQGTTVTVSS
VL: DIVLTQAAPSLPVTPGESVSISCRSSKSLLHSNGNTYLYWFLQRPGQSPQLLIYRMSNLASGVPDRFSGSGSGTAFTLRISRVEAEDVGVYYCMQHREYPVTFGSGPN
binds: all assays above

B2: Conjugate 128 (antibody, V domains shown)
VH: AVTLDESGGGLQTPGGALSLVCKASGFTFSGYDMLWVRQAPGKGLEWVAGIGSTGGGTDYGAAVKGRATISRDNGQSTVRLQLNNLRAEDTATYYCAKVAGGCNSGYCRDSPGSIDAWGHGTEVIVS
VL: AVTQQPASVSANPGETVKITCSGGGSRNYYGWYQQKSPGSVPVTVIYYDDQRPSNIPSRFSGALSGSTSTLTITGVQADDEAVYFCGSADSNTYEGSFGAGTTLTVL
binds: all assays above

B3: Conjugate 132 (antibody, V domains shown)
VH: GAELVRSGASVKMSCKASGYSFTDYNMYWVKQTPGQGLEWIGYIYPGNGGTNYNQKFKGKATLTADTSSSTAYMQISSLTSEDSAVYFCARDYDDGGYAMDYWGQGTTVTVSS
VL: DIQMTQSPASLSASVGETVTITCRASGNIHNYLTWYQQKQGKSPQLLVYNAKTLADGVPSRFSGSGSGTQYSLKINRLQPEDFGSYYCQHFWNIPWTFGGGTKLNSR
binds: all assays above

B4: Conjugate 92 (antibody, V domains shown)
VH: EQSLVESGGGLVQPGGSLRLSCAASGFSLSSHSLGWVRQAPGKGLEWIGDIRSGGSAYYANWAKGRFTISRDNSKNTLYLQMNSLRAEDTAVYYCTRTNGPSDLTNRLDLWGQGTLVTVSS
VL: QVLTQSPSSLSASVGDRVTINCQASQSLYNNENLAWFQQKPGKVPKRLIYGASTLASGVSSRFSGSGSGTEFTLTISSLQCEDFAIYYCLGEFSCGSADCFAFGGGTKVEIK
binds: all assays above

B5: Conjugate 159 (antibody, V domains shown)
VH: EVQLVESGGGLVQPGGSLRLSCAASGFSLSSHSLGWVRQAPGKGLEWIGDIRSGGSAYYANWAKGRFTISRDNSKNTLYLQMNSLRAEDTAVYYCTRTNGPSDLTNRLDLWGQGTLVTVSS
VL: EIVLTQSPSSLSASVGDRVTINCQASQSLYNNENLAWFQQKPGKVPKRLIYGASTLASGVSSRFSGSGSGTEFTLTISNLQPEDFATYYCLGEFSCGSADCFAFGGGTKVEIK
binds: all assays above

B6: Conjugate 158 (antibody, V domains shown)
VH: EVQLVESGGGLVQPGGSLRLSCAASGFSLSSHSLGWVRQAPGKGLEWIGDIRSGGSAYYANWAKGRFTISRDNSKNTLYLQMNSLRAEDTAVYFCTRTNGPSDLTNRLDLWGQGTLVTVSS
VL: EIVLTQSPSSLSASVGDRVTINCQASQSLYNNENLAWFQQKPGKVPKRLIYGASTLASGVSSRFSGSGSGTEFTLTISNLQPEDFATYYCLGEFSCGSADCFAFGGGTKVEIK
binds: all assays above

B7: Conjugate 155 (antibody, V domains shown)
VH: EVQLVESGGGLVQPGGSLRLSCAASGFSLSSHSLGWVRQAPGKGLEWIGDIRSGGSAYYANWAKGRFTISRDNSKNTLYLQMNSLRAEDTAVYYCTRTNGPSDLTNRLDLWGQGTLVTVSS
VL: QVLTQSPSSLSASVGDRVTINCQASQSLYNNENLAWFQQKPGKVPKRLIYGASTLASGVSSRFSGSGSGTEFTLTISSLQCEDFAIYYCLGEFSCGSADCFAFGGGTKVEIK
binds: all assays above

B8: Conjugate 157 (antibody, V domains shown)
VH: EVQLVESGGGLVQPGGSLRLSCAASGFSLSSHSLGWVRQAPGKGLEWIGDIRSGGSAYYANWAKGRFTISRDNSKNTLYLQMNSLRAEDTAVYYCTRTNGPSDLTNRLDLWGQGTLVTVSS
VL: EQVLTQSPSSLSASVGDRVTINCQASQSLYNNENLAWFQQKPGKVPKRLIYGASTLASGVSSRFSGSGSGTEFTLTISNLQPEDFAIYYCLGEFSCGSADCFAFGGGTKVEIK
binds: all assays above

B9: Conjugate 156 (antibody, V domains shown)
VH: EVQLVESGGGLVQPGGSLRLSCAASGFSLSSHSLGWVRQAPGKGLEWIGDIRSGGSAYYANWAKGRFTISRDNSKNTLYLQMNSLRAEDTAVYFCTRTNGPSDLTNRLDLWGQGTLVTVSS
VL: QVLTQSPSSLSASVGDRVTINCQASQSLYNNENLAWFQQKPGKVPKRLIYGASTLASGVSSRFSGSGSGTEFTLTISSLQCEDFAIYYCLGEFSCGSADCFAFGGGTKVEIK
binds: all assays above

B10: Conjugate 160 (antibody, V domains shown)
VH: EVQLVESGGGLVQPGGSLRLSCAASGFSLSSHSLGWVRQAPGKGLEWIGDIRSGGSAYYANWAKGRFTISRDNSKNTLYLQMNSLRAEDTAVYFCTRTNGPSDLTNRLDLWGQGTLVTVSS
VL: EQVLTQSPSSLSASVGDRVTINCQASQSLYNNENLAWFQQKPGKVPKRLIYGASTLASGVSSRFSGSGSGTEFTLTISNLQPEDFAIYYCLGEFSCGSADCFAFGGGTKVEIK
binds: all assays above

B11: Conjugate 116 (antibody, V domains shown)
VH: GPDLVKPGASVKISCKASGYSFTAYYMHWVKQSHGKSLEWIGRVNPNNGGTTYNQKFKGKAILTVDKSSSTAYMELRSLTFEDSAVYYCARRIYYGYFDYWGQGTTVTVSS
VL: AFFAVSLGQRATISCKASQSVDYDGDSYMNWYQQKPGQPPKLLIYVASNLESGVPARFSGSGSGTDFTLNIHPVEEEDAATYYCQQSNEDPYTFGGGTKLEIKQ
binds: all assays above

B12: Conjugate 149 (antibody, V domains shown)
VH: GPDLVKPGASVKISCKASGYSFTAYYMHWVKQSHGKSLEWIGRVNPNNGGTTYNQKFKGKAILTVDKSSSTAYMELRSLTFEDSAVYYCARRIYYGYFDYWGQGTTVTVSS
VL: AFFAVSLGQRATISCKASQSVDYDGDSYMNWYQQKPGQPPKLLIYVASNLESGVPARFSGSGSGTDFTLNIHPVEEEDAATYYCQQSNEDPYTFGGGTKLEIKQ
binds: all assays above
